Assay results reported in PMC6750928.
Results are given in words; binding and its absence hold for the method and conditions named. In cells and extracts the contact can be indirect. Binding calls can cover weak binding; strength is not graded here.

Amino acid sequences for entries named in this document (tags omitted). A change or cut given only in a name is not applied to a line headed by its entry. Residues count along the entry.
UniProt P30988: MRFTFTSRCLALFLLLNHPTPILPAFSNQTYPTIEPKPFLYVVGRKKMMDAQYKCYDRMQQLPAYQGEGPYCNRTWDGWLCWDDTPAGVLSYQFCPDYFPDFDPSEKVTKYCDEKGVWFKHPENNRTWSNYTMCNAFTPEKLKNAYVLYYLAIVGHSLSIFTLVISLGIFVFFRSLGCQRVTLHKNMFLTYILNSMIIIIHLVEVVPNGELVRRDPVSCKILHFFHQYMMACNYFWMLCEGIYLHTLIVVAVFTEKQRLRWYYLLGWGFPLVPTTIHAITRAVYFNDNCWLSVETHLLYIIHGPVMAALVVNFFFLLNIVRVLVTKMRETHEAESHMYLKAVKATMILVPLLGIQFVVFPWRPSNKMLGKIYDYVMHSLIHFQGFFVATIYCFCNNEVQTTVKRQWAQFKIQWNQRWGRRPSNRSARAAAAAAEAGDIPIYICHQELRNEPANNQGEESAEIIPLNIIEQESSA
UniProt O60895, residues 43-175: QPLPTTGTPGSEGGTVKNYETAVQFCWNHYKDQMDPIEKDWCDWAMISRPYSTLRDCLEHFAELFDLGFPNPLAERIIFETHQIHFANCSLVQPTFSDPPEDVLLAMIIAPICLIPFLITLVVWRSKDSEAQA

Molecular target: Calcitonin receptor (human) (UniProt P30988)
Experiment: co-IP; multiplexed suspension bead array (SBA) immunoassay: clarified lysates (1% DM; 50 mM Hepes, 1 mM EDTA, 150 mM NaCl, 5 mM MgCl2, pH 7.4) of HEK293F cells cotransfected with tagged GPCR and RAMP, diluted to 50 ug/ml, incubated overnight at 4°C with bar-coded beads carrying anti-tag (HA, 1D4, FLAG, OLLAS), anti-GPCR or anti-RAMP Abs; the partner detected with a PE-conjugated anti-tag mAb; Luminex FlexMap 3D, MFI

Row | binding | Molecule
1 | binds | Receptor activity-modifying protein 2 (from UniProt O60895 43-175)
2 | binds | Receptor activity-modifying protein 3 (protein, UniProt O60896 28-148) CNETGMLERLPLCGKAFADMMGKVDVWKWCNLSEFIVYYESFTNCTEMEANVVGCYWPNPLAQGFITGIHRQFFSNCTVDRVHLEDPPDEVLIPLIVIPVVLTVAMAGLVVWRSKRTDTLL
